Here are results for 1 molecule from article PMC5743546 (Biochemistry, 2017).

Series [1] concerns the target T1, CYP2J2 (Homo sapiens, UniProt P51589).
T1 sequence (P51589 1-502): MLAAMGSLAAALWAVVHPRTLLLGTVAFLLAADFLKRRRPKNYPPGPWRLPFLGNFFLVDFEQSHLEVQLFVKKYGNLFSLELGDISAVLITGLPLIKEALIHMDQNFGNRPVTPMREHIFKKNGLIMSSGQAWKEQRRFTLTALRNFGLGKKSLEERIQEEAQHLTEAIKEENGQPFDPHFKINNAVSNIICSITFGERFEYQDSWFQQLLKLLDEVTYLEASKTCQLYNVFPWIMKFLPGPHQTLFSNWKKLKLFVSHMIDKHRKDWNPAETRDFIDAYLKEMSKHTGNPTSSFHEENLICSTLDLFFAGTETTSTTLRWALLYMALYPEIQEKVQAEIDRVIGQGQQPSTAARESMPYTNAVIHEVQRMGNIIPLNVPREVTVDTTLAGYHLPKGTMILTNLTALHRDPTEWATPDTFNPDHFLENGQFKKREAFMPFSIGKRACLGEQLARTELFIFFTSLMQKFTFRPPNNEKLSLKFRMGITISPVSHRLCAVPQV
The format is binding.

In series [2] the target is T1, CYP2J2. As to conditions: read-out: KD of binding to CYP2J2 active site; one-site binding; cited from earlier work.

Regarding `CC(C)(C)c1ccc(C(=O)CCCN2CCC(OC(c3ccccc3)c3ccccc3)CC2)cc1` [EBS, ebastine], affinity at CYP2J2 [1] was put at a Ki of 13.8 ± 1.6 µM. Besides, at CYP2J2 [1] (60 μM EBS, 1 μM 7-de-aDOX), the “inhibition of 7-de-aDOX binding to CYP2J2 (in words)” value is “did not inhibit”. In addition, the Kd (in general, the free concentration of one partner at which half of the binding sites on the other are occupied at equilibrium, for simple one-to-one binding) at CYP2J2 [2] was 8.16 µM.
